{
  "source": "patent US20050152967A1",
  "about": "“Dynamic variable release” (PFab, LP, priority 2003, published 2005)",
  "assay": "in vitro dissolution (acid/base dissolution bath, USP apparatus, HPLC)",
  "type": "physicochemical",
  "conditions": "guaifenesin on phenylephrine",
  "procedure": "The amount of active dissolution over time, e.g., guaifenesin and/or phenylephrine in the tablets or capsules disclosed herein below may be tested as follows. Briefly, in vitro guaifenesin or phenylephrine release may be determined using an acid/base dissolution bath, e.g., a standard USP 23/NF Drug Release Apparatus. Dissolution vessels of a USP calibrated dissolution bath, equipped with shafts and paddles, are filled with 675 ml of 0.1N hydrochloric acid at 37.0 degrees Centigrade. The bath and vessels are maintained at a temperature of 37.0±0.5 degrees Centigrade throughout a standard 7 hour dissolution test. […] One tablet or capsule is dropped into each vessel.\nAt the testing intervals, e.g., 1 minute, 10, 10, 30, 45, 60 or 90 minutes, 2, 3, 4, 6, 7, 9 or 12 hour testing intervals, an aliquot, e.g., 5 mls of dissolution solution is withdrawn from each vessel, filtered (e.g., through a 10-22 micron polyethylene filter) and tested using an HPLC. To stop the dissolution a strong base may be added to the sample, e.g., 0.2M sodium phosphate tribasic to increase the pH of the solution to about 6.8. The percent dissolution is determined using HPLC.",
  "note": "At least one read-out could not be matched to a standard name with certainty.",
  "data": [
    {"smiles": "COc1ccccc1OCC(O)CO", "note": "(stereo not shown) [Guaifenesin, 3(2-methoxyphenoxy)-1,2-propanediol]", "values": [
      {"measurement": "solubilizer action", "value": "acts as a solubilizer for phenylephrine"}
    ]}
  ]
}
